Source: PubChem BioAssay AID1671195 (Yale University, 2021)
In all, the deposit lists about 22,000 reagents; this is a part drawn at random. Over the whole deposit, about 1,510 (6.9%) were called active. 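Active includes knockdowns raising or lowering LDL uptake; positive z-scores mean more uptake, negative mean less.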 A number with no mark means an inactive call.

Assay: 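Genes whose knockdown alters LDL uptake in liver cancer cells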 (primary screen)
System: human Huh7 hepatoma cells
Reagent: siRNA pool against human genes, 18 nM
Duration: about 2 to 2.5 days of knockdown, then 8 h LDL uptake
Conditions: DiI-labelled LDL at 30 µg/ml for 8 h, in lipoprotein-deficient serum medium
Measured: 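Fluorescent LDL signal imaged in cells, scaled to the plate median, robust z-score for each replicate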
Scale: robust z-score: higher = more LDL uptake after knockdown
Call rule: 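Active when two or more replicates show a robust z-score above 2 or below -2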

robust z-score, replicate 1 | robust z-score, replicate 2 | robust z-score, replicate 3 | gene
-1.03 | -1.15 | -1.12 | CCDC89 (coiled-coil domain containing 89)
-1.29 | 0.698 | -1.59 | TOMM7 (translocase of outer mitochondrial membrane 7)
-0.112 | 0.0279 | -0.26 | LAMA4 (laminin subunit alpha 4)
0.543 | 1.53 | 0.927 | IFT172 (intraflagellar transport 172)
1.76 | 2.15 | -2.14 | LOC388515 (retired record)
1.66 | 0.588 | 0.614 | MTG1 (mitochondrial ribosome associated GTPase 1)
2.36 (active) | 0.466 | 1.97 | SGSM3 (small G protein signaling modulator 3)
2.32 | 1.34 | 1.51 | GATM (glycine amidinotransferase)
1.94 (active) | 1.88 | 2.26 | TRAP1 (TNF receptor associated protein 1)
-0.325 | -0.571 | -0.965 | PLBD1 (phospholipase B domain containing 1)
-0.326 | -1.61 | 0.688 | RPS15 (ribosomal protein S15)
-1.38 | -1.42 | -1.5 | CYP11B2 (cytochrome P450 family 11 subfamily B member 2)
-1.5 | -1.34 | -0.509 | DNAH7 (dynein axonemal heavy chain 7)
0.307 | -1.16 | -0.364 | GDPD3 (glycerophosphodiester phosphodiesterase domain containing 3)
0.255 | 0.418 | -0.62 | CEP104 (centrosomal protein 104)
-1.09 | 0.0413 | -1.44 | TMEM234 (transmembrane protein 234)
-1.41 | -0.671 | -0.503 | CDK18 (cyclin dependent kinase 18)
1.17 | 0.613 | 0.492 | JHY (junctional cadherin complex regulator)
1.02 | 0.86 | 0.524 | RPL31P33 (ribosomal protein L31 pseudogene 33)
0.608 | 0.253 | -1.16 | CIMIP2A (ciliary microtubule inner protein 2A)
-0.0961 | -0.158 | -0.127 | CEACAM22P (CEA cell adhesion molecule 22, pseudogene)
1.08 | 0.846 | 1.17 | ZNF812P (zinc finger protein 812, pseudogene)
0.617 | 1.35 | 0.998 | SNHG11 (small nucleolar RNA host gene 11)
0.37 | -0.187 | -0.149 | CLDN23 (claudin 23)
1.9 | 1.86 | 1.26 | RWDD1 (RWD domain containing 1)
-0.479 | -0.644 | -0.895 | ZNF345 (zinc finger protein 345)
0.209 | 0.00995 | 0.678 | AIFM1 (apoptosis inducing factor mitochondria associated 1)
-1.42 | -0.549 | -1.43 | ANKRD35 (ankyrin repeat domain 35)
-1.07 | -1.32 | -1.22 | ADAMTS6 (ADAM metallopeptidase with thrombospondin type 1 motif 6)
1.57 | 1.95 | 1.32 | CCNL2 (cyclin L2)
-1.27 | -1.95 | -0.914 | PHETA1 (PH domain containing endocytic trafficking adaptor 1)
1.02 | 0.552 | 0.543 | REN (renin)
1.94 | 1.51 | 1.29 | CYB561D2 (cytochrome b561 family member D2)
0.78 | -0.039 | -0.314 | ZNF362 (zinc finger protein 362)
-0.782 | 1.12 | -0.738 | SLC38A7
-1.34 | 0.163 | 0.329 | PACRG (parkin coregulated)
0.311 | 1.47 | 0.959 | TNP1 (transition protein 1)
-0.114 | -1.13 | -0.868 | DCTN1 (dynactin subunit 1)
-0.818 | -0.427 | -0.31 | LOC399919 (retired record)
-0.573 | 0.365 | -1.12 | GDI2 (GDP dissociation inhibitor 2)
-0.388 | -0.784 | 0.369 | PM20D1 (peptidase M20 domain containing 1)
2.73 (active) | 1.16 | 2.9 | GARIN3 (golgi associated RAB2 interactor family member 3)
-1.8 | -1.11 | -1.34 | ZNF70 (zinc finger protein 70)
-1.33 | -1.29 | -1.32 | LOC441652 (retired record)
0.868 | 0.875 | 1.41 | POLI (DNA polymerase iota)
2.36 (active) | 2.55 | 2.14 | LOC388351 (retired record)
-2.06 | -0.647 | 0.00736 | EMC4 (ER membrane protein complex subunit 4)
0.0447 | 0.923 | 0.509 | CHRND (cholinergic receptor nicotinic delta subunit)
3.35 (active) | 2.11 | 2.89 | RCAN3 (regulator of calcineurin 3)
0.596 | 0.614 | 0.176 | LOC440334 (retired record)
0.0537 | -0.0257 | -0.13 | NFE2 (nuclear factor, erythroid 2)
1.16 | 0.298 | 0.12 | GPR37 (G protein-coupled receptor 37)
-0.262 | -0.0912 | -0.169 | MRPL58 (mitochondrial ribosomal protein L58)
-0.224 | 0.961 | 0.562 | MAST2 (microtubule associated serine/threonine kinase 2)
1.14 | 1.96 | 1.81 | RPL22P11 (ribosomal protein L22 pseudogene 11)
2.49 (active) | 1.91 | -1.4 | EVL (Enah/Vasp-like)
1.31 | 1.43 | 1.35 | ARHGEF35 (Rho guanine nucleotide exchange factor 35)
0.0894 | 0.158 | -0.00993 | LOC440850 (retired record)
-0.301 | -0.412 | -0.423 | CCDC83 (coiled-coil domain containing 83)
-0.735 | -1.18 | -0.621 | HPCAL1 (hippocalcin like 1)
0.773 | 0.493 | 0.512 | KLF17 (KLF transcription factor 17)
0.538 | 0.436 | 0.831 | PKDCC (protein kinase domain containing, cytoplasmic)
-0.121 | 0.134 | -0.0728 | LOC389562 (retired record)
-0.398 | -0.421 | -0.309 | EPS15 (epidermal growth factor receptor pathway substrate 15)
0.896 | -0.298 | 0.507 | LOC401445 (retired record)
1.16 | 1.83 | 0.561 | NTHL1 (nth like DNA glycosylase 1)
1.78 | 1.05 | 2.45 | HOXB8 (homeobox B8)
0.312 | 0.374 | -0.217 | IQUB (IQ motif and ubiquitin domain containing)
-0.192 | 0.318 | -0.296 | CELA3B (chymotrypsin like elastase 3B)
1.87 | -0.848 | 1.61 | ZNF609 (zinc finger protein 609)
0.471 | -0.335 | 0.377 | PLEK (pleckstrin)
1.35 | 0.793 | 1.34 | CDC20 (cell division cycle 20)
0.729 | 0.417 | 0.516 | CALN1 (calneuron 1)
0.508 | 0.0619 | -0.223 | RGPD5 (RANBP2 like and GRIP domain containing 5)
-0.919 | 0.574 | 1.06 | MUC13 (mucin 13, cell surface associated)
-1.04 | -0.88 | -1.39 | STK16 (serine/threonine kinase 16)
-1.63 | -1.57 | -1.41 | RPL23P8 (ribosomal protein L23 pseudogene 8)
-1.45 | -1.74 | -1.33 | SLC2A14
-1.75 (active) | -2.42 | -2.24 | C6orf118 (chromosome 6 open reading frame 118)
-0.283 | -0.527 | 0.0913 | HPN (hepsin)
0.53 | 0.329 | 0.694 | TEX41 (testis expressed 41)
-0.431 | -0.45 | -0.342 | IFNE (interferon epsilon)
-0.919 | -0.905 | -0.878 | SPRYD4 (SPRY domain containing 4)
1.46 | 1.02 | 1.55 | ACAD8 (acyl-CoA dehydrogenase family member 8)
-1.06 | -1.05 | -1.37 | LOC440048 (retired record)
0.247 | 0.241 | 0.237 | USF3 (upstream transcription factor family member 3)
0.595 | 0.681 | 0.669 | FLYWCH2 (FLYWCH family member 2)

In a second layout: entries from further up
PACRG (parkin coregulated) → robust z-score, replicate 1: -1.34; robust z-score, replicate 2: 0.163; robust z-score, replicate 3: 0.329
TNP1 (transition protein 1) → robust z-score, replicate 1: 0.311; robust z-score, replicate 2: 1.47; robust z-score, replicate 3: 0.959
DCTN1 (dynactin subunit 1) → robust z-score, replicate 1: -0.114; robust z-score, replicate 2: -1.13; robust z-score, replicate 3: -0.868
LOC399919 (retired record) → robust z-score, replicate 1: -0.818; robust z-score, replicate 2: -0.427; robust z-score, replicate 3: -0.31
GDI2 (GDP dissociation inhibitor 2) → robust z-score, replicate 1: -0.573; robust z-score, replicate 2: 0.365; robust z-score, replicate 3: -1.12
PM20D1 (peptidase M20 domain containing 1) → robust z-score, replicate 1: -0.388; robust z-score, replicate 2: -0.784; robust z-score, replicate 3: 0.369
GARIN3 (golgi associated RAB2 interactor family member 3) → robust z-score, replicate 1: 2.73 (active); robust z-score, replicate 2: 1.16; robust z-score, replicate 3: 2.9
ZNF70 (zinc finger protein 70) → robust z-score, replicate 1: -1.8; robust z-score, replicate 2: -1.11; robust z-score, replicate 3: -1.34
LOC441652 (retired record) → robust z-score, replicate 1: -1.33; robust z-score, replicate 2: -1.29; robust z-score, replicate 3: -1.32
POLI (DNA polymerase iota) → robust z-score, replicate 1: 0.868; robust z-score, replicate 2: 0.875; robust z-score, replicate 3: 1.41
